Measured data: PubChem BioAssay AID1259308 (NCATS, 2017)
Assay: 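Candidate targets for better recombinant protein yield in mammalian cells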 (primary screen). Cells: human HEK293 embryonic kidney cells stably expressing firefly luciferase (HEK-CMV-Luc2-Hygro). Reagent: single siRNA against human genes, 0.8 pmol siRNA per well. Time to read-out: 72 h. Read-out: 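Reporter luminescence and viable-cell signal on separate replicate plates, given as percent of non-targeting control and median/MAD z-scores, plus per-cell luciferase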. Scale: total luciferase, z-score: higher = more reporter protein produced. Rule for the call: 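Active when the median/MAD z-score for overall luciferase is greater than 3; a gene was taken forward for validation with new siRNAs if at least two of its three siRNAs passed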. Meaning of the calls: active = raised luciferase; inactive = no rise.
The whole screen tested about 59,000 reagents; this is a random part of them. Of all reagents, about 1,510 (2.6%) are marked active. 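Calls use total luciferase alone and ignore viability, so some active siRNAs may act by altering cell number.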 A number with no mark means an inactive call. Reagents against one gene are numbered here. Further read-outs or replicates are left out here.

IFNK (interferon kappa) #1 gave total luciferase, z-score -0.0122.
IFNK (interferon kappa) #2 scored total luciferase, z-score -0.242.
IFNK (interferon kappa) #3 showed total luciferase, z-score 0.782.
With knock-down of FGFBP1 (fibroblast growth factor binding protein 1) #1, the screen gave total luciferase, z-score -1.52.
With knock-down of FGFBP1 (fibroblast growth factor binding protein 1) #2, the record shows total luciferase, z-score 0.293.
FGFBP1 (fibroblast growth factor binding protein 1) #3 gave total luciferase, z-score 1.41.
PPIAP59 (peptidylprolyl isomerase A pseudogene 59) #1 showed total luciferase, z-score -1.17.
Silencing of PPIAP59 (peptidylprolyl isomerase A pseudogene 59) #2 gave: total luciferase, z-score 6.98 (active).
For PPIAP59 (peptidylprolyl isomerase A pseudogene 59) #3 the deposit lists total luciferase, z-score -0.748.
After knock-down of SPATS1 (spermatogenesis associated serine rich 1) #1, the record shows total luciferase, z-score -0.183.
SPATS1 (spermatogenesis associated serine rich 1) #2 gave total luciferase, z-score 0.0106.
Against SPATS1 (spermatogenesis associated serine rich 1) #3, the values are total luciferase, z-score -0.012.

Individual results from the entries so far.
Entry for PPIAP59 (peptidylprolyl isomerase A pseudogene 59) #3 under “total luciferase, z-score”: -0.748
Value for PPIAP59 (peptidylprolyl isomerase A pseudogene 59) #2 under “total luciferase, z-score”: 6.98 (active)
